Data reported in PMC8710002.
Results are given in words; binding and its absence hold for the method and conditions named. Binding seen in cells or lysates may run through a third protein. Some entries that bind do so weakly or less than the wild type.

Amino acid sequences for entries named in this document (tags omitted). A change or cut given only in a name is not applied to a line headed by its entry.
UniProt P47736: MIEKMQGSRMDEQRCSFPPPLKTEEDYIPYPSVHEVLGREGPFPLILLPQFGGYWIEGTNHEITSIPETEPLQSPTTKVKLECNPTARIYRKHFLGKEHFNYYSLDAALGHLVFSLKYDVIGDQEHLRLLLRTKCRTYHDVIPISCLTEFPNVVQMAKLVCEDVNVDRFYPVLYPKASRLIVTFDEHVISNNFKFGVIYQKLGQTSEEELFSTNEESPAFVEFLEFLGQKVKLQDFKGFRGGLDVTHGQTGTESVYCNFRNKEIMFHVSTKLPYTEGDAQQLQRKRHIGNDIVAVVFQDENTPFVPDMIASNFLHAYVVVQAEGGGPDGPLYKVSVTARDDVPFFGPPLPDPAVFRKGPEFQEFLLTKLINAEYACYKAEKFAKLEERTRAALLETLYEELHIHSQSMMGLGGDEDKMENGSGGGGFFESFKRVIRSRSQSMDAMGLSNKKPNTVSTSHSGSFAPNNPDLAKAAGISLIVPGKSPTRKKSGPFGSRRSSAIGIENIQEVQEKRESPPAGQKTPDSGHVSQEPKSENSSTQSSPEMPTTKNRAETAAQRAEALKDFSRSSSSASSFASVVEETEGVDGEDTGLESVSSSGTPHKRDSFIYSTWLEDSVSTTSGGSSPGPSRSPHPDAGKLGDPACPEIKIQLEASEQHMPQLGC
UniProt Q05086: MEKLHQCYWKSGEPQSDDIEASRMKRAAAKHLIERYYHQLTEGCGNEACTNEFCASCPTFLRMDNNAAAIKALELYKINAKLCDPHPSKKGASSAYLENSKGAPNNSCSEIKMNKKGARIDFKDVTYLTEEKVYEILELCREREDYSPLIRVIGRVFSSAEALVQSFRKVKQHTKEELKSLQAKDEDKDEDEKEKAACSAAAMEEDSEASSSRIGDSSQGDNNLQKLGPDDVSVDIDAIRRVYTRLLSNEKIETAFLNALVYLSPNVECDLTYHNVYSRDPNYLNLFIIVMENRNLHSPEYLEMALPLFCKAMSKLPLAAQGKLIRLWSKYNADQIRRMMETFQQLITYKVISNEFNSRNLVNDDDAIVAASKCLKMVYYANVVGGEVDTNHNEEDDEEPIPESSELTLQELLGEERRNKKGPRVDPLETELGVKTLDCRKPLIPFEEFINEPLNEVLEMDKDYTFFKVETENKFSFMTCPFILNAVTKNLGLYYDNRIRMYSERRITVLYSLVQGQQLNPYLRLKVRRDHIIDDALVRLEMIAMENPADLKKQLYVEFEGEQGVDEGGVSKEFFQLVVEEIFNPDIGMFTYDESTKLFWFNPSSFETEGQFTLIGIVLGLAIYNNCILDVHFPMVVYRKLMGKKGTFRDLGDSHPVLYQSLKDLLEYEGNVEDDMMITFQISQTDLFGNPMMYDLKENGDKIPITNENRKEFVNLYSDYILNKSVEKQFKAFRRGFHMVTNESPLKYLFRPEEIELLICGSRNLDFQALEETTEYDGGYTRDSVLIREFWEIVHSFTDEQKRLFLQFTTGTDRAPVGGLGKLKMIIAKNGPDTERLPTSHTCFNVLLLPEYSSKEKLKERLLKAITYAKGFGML

Columns and labels:
[1] = biological target: Ras-related regulatory protein 1 GTPase-activating protein (Rap1GAP) (human (endogenous in HeLa, SiHa and C33A)) (UniProt P47736); assay: co-IP; total cell lysates (RIPA) of HPV-positive HeLa and SiHa cells; anti-Rap1GAP antibody at 4 °C overnight, protein A + G agarose beads at room temperature for 3 h, three washes with PBS; immunoblot with anti-E6AP antibody
[2] = biological target: Ras-related regulatory protein 1 GTPase-activating protein (Rap1GAP) (human (endogenous in HeLa, SiHa and C33A)) (UniProt P47736); assay: co-IP; total cell lysate (RIPA) of HPV-negative C33A cells; anti-Rap1GAP antibody at 4 °C overnight, protein A + G agarose beads at room temperature for 3 h, three washes with PBS; immunoblot with anti-E6AP antibody

With “E6-associated protein (E6AP) (from UniProt Q05086 1-875) (enzyme)” the binding [1] was “binds” and the binding [2] was “no binding (condition: in HPV-negative C33A cells)”.
